# Data reported in PubChem BioAssay AID686935 (National Center for Advancing Translational Sciences (NCATS), 2013).
# Inconclusive means that the source gave no clear call. Such entries were picked first, then a sample of the others. A potency beside an inconclusive call is a rough fit, not a confirmed value. Activity calls are given as the source filed them. Calls follow the shape of the dose curve; as a rule, active = well fitted curve in the direction sought with a large enough effect; inconclusive = small, poorly fitted or top-dose-only effect, or another doubt; inactive = no such curve, though single readings can be large or run the other way.
# Test: qHTS Assay for Lipid Storage Modulators: CytotoxicityAssay against Probe and Analogs
# Conditions: 3T3-L1 adipocytes cytotoxicity, imaging cell count; activity change, negative = cytotoxicity: at 20 µM (top of the series)
# Description: Storing lipids as a reservoir for energy or the anabolism of elementary metabolites is a common feature of probably all cells and is conserved from bacteria to humans. The universal cellular lipid storage organelle is the so-called lipid storage droplet (LD). Although ubiquitous, LDs share a simple structure composed of a hydrophobic core that harbors the storage lipids, which is shielded by a droplet-specific phospholipid monolayer to which proteins are attached. The current model of LD biogenesis involves an incorporation of the lipid core into the membrane leaflets of the endoplasmic reticulum (ER) followed by a subsequent budding-like maturation of a LD, which ultimately pinches off. Once released, LD volume can increase by localized lipogenesis or fusion of existing droplets. Storage lipids are re-mobilized enzymatically by lipase activity. Lipase regulation in the adipocyte is heavily studied and involves multiple components including catecholamine signaling, the LD-associated proteins Perilipin and comparative gene identification-58 (CGI-58) and at least two lipases named hormone sensitive lipase (HSL) and adipocyte triglyceride lipase (ATGL). LD regulation outside of the adipocyte is poorly understood and only few components are known. However, there is an urgent need to learn more about ectopic fat depots as mislocalized storage of lipids, for example in the liver or muscle, is an eminent health problem associated with insulin resistance or the metabolic syndrome. We developed a laser-scanning cytometer assay to enable 1,536-well screening and combined the results of the small molecules screen with an RNAi database based on lipid storage. In this assay we tested analogs of the probe in a cytotoxicity assay. NIH Molecular Libraries Probe Production Centers Network [MLPCN] NIH Chemical Genomics Center [NCGC] MLPCN Grant: MH085686 Assay Submitter (PI): Mathias Beller, Max-Planck-Institut fur Biophysikalische Chemie
# 3T3-L1 cells were obtained from ATCC (CL-173). Pre-adipocyte medium (PM-1),differentiation medium (DM-2) and after adipocyte medium (AM-1) were purchased from Zen-Bio (# PM-1-L1, DM-2-L1, AM-1-L1). […] of PM-1containing 3,000 cells was dispensed into each well of a 96-well plate (Corning, #3340), and the assay plates were incubated at 37 °C, 95% humidity and 5% CO2 for 3-5 days. The differentiation of pre-adipocyte to adipocyte was induced by removing the pre-adipocyte medium and replacing with […] of differentiation medium. […] of compounds at different concentrations dissolved in differentiation medium were added to the assay plates, along with medium exchange for differentiation to test their effects on adipocyte differentiation. The final DMSO concentration was 0.5%. Triacsin C (Sigma-Aldrich T-4540), an inhibitor of long-chain fatty acyl CoA synthetase that blocks synthesis of triglycerides, was used as a positive control for lipid under-storage. After 3 days, differentiation medium was replaced with 200ul of adipocyte maintenance medium and assay plates were incubated for 4 days. Cells were then fixed using4% of paraformaldehyde in PBS for 30 minutes at room temperature, washed 3 times with PBS buffer. Finally, the cells were stained using […] of PBS containing BODIPY lipid dye 493/530 (1:2000 -, Life Technologies, # D-3922), Hoechst 33342 (1:1000, Life Technologies, #H3570) and CellMask deep red dye (1:10,000 , Life Technologies, #H32721). Images were acquired using InCell 2000 (GE), number of cells, number of lipids, size of lipids and cells were analysis using GE Investigator software.
Compound,Potency,"activity change, negative = cytotoxicity"
CCOc1ccc(CCNC(=O)c2cc3sccc3n2CCN2CCOCC2)cc1OCC,"inconclusive: 14.1 µM [cytotoxic, partial curve, poor fit]",–
CCOC(=O)C1CCN(C(=O)C(C)(C)NC(=O)Nc2ccc(Cl)cc2Cl)CC1,"inconclusive: 5.01 µM [cytotoxic, partial curve, poor fit]",–
O=C(NC1CCCc2c1cnn2-c1cccc(O)c1)c1ccccn1 (centres undefined),"inconclusive: 14.1 µM [cytotoxic, single point]",–
CCOc1ccc(CCNC(=O)c2cc3sccc3n2CCN2CCN(C)CC2)cc1OCC,"inconclusive: 14.1 µM [cytotoxic, single point]",–
CCn1c(C(=O)NCCc2ccc(OC)cc2)cc2sccc21,inactive,–
CCOc1ccc(CCNC(=O)c2ccc3ccccc3n2)cc1OCC,–,inconclusive: 8.11% [cytotoxic]
CCOc1ccc(CCNC(=O)c2ccc(C3(C(F)(F)F)N=N3)cc2)cc1OCC,"inconclusive: 14.1 µM [cytotoxic, single point]",–
CCOc1cc(CCNC(=O)c2cc3sccc3n2Cc2ccccc2)cc(F)c1OCC,active: 7.08 µM,–
CCOC(=O)C1CCN(C(=O)C2(NC(=O)Nc3ccccc3Cl)CCC2)CC1,"inconclusive: 8.91 µM [cytotoxic, partial curve]",–

# Shown with tabs: entries from further up.
Compound	Potency	activity change, negative = cytotoxicity
CCOc1ccc(CCNC(=O)c2ccc3ccccc3n2)cc1OCC	–	inconclusive: 8.11% [cytotoxic]
CCOc1ccc(CCNC(=O)c2ccc(C3(C(F)(F)F)N=N3)cc2)cc1OCC	inconclusive: 14.1 µM [cytotoxic, single point]	–
